These are yes or no findings as the source states them, for the method shown. Binding seen in cells or lysates may run through a third protein. Some entries that bind do so weakly or less than the wild type. For some assays here: Tags and fused reporters may be left off the sequences shown.
Experiments:
myc-tagged PAR6B = molecular target: T1, myc-tagged PAR6B (UniProt Q9BYG5); experiment: co-IP; anti-myc precipitation after transient transfection in HEK293 cells, PTPN14 detected with anti-V5; NP40 buffer
T1 sequence: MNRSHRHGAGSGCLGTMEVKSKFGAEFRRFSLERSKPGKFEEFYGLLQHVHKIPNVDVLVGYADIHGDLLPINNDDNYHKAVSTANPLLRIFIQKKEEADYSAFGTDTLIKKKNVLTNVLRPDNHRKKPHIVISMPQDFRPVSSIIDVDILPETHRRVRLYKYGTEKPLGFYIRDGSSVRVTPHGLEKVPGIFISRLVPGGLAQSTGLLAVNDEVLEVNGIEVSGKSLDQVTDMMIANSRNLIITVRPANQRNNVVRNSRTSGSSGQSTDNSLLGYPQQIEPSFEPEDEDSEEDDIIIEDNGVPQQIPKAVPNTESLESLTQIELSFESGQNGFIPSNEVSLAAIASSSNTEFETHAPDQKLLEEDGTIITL

Protein sequences, listed by entry. Tags and fused reporters are not part of them.
UniProt Q8TEW0: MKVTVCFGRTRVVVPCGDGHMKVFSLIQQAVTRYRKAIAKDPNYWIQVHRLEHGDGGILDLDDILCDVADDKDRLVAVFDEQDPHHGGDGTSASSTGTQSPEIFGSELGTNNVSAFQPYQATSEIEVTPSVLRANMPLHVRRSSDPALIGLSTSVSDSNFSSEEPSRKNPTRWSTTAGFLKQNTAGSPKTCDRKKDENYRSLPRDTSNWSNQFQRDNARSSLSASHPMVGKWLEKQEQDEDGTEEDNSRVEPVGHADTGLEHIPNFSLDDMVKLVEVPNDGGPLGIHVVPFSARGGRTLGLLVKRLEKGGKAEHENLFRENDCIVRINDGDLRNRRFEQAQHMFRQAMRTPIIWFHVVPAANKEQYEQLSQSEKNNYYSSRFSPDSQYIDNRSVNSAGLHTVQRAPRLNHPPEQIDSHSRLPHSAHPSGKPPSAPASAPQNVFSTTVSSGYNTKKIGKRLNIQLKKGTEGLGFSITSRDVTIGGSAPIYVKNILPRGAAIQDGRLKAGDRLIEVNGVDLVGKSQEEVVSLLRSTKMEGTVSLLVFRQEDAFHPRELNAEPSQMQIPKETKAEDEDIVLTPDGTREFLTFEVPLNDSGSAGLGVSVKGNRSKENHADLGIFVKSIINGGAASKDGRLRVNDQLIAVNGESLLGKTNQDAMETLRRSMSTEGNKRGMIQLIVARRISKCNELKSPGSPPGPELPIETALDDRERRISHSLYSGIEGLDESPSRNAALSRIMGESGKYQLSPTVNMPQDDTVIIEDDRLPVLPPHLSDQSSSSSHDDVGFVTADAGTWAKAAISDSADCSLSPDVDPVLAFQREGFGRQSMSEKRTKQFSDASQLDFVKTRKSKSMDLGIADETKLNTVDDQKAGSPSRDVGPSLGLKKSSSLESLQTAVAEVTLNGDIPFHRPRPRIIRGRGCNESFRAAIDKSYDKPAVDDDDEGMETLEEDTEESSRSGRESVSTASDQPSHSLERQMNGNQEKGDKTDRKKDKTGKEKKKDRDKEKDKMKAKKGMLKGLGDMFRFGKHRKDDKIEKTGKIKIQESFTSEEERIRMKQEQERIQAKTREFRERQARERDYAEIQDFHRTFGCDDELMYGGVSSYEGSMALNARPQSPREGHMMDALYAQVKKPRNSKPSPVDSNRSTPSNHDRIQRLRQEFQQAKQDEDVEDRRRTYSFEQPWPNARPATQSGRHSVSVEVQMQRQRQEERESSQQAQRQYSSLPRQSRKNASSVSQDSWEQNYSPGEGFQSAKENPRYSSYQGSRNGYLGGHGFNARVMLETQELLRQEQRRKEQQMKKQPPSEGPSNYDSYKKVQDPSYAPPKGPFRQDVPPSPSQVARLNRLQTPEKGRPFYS

myc-PRKCI [1] = molecular target: T2, myc-PRKCI (UniProt P41743); experiment: as above
T2 sequence: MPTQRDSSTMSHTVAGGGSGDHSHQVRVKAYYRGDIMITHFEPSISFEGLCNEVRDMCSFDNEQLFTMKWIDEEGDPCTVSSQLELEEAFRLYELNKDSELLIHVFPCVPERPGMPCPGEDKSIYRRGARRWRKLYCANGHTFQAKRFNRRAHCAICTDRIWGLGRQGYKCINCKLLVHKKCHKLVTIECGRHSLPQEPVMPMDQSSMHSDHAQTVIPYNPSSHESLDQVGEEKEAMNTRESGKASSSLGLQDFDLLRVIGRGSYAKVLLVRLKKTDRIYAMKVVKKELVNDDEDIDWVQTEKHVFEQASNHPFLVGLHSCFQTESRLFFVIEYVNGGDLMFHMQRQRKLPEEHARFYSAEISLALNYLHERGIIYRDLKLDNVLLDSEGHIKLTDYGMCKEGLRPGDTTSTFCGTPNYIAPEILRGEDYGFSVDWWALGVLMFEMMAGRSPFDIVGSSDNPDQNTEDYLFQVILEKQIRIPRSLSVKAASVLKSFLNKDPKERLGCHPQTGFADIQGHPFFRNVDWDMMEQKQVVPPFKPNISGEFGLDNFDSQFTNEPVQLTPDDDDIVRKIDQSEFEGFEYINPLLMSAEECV

myc-PRKCI [2] = molecular target: T2, myc-PRKCI; experiment: co-IP; anti-myc precipitation of myc-PRKCI from Caco-2 cysts, control (PAR6B also in KRAS^G12V-expressing cells), endogenous partners by blot
[3] = molecular target: PARD3 (human (endogenous in Caco-2)) (UniProt Q8TEW0); experiment: co-IP; endogenous proteins of 2D and 3D Caco-2 cells; anti-PAR6B (Fig. 4B), antibody of Supplemental Fig. S3B not told; NP40 buffer (150 mM NaCl, 1% NP-40, 50 mM Tris-HCl pH 8.0)

B1: PTPN14-V5 (protein, UniProt Q15678 1-1187)
chain: MPFGLKLRRTRRYNVLSKNCFVTRIRLLDSNVIECTLSVESTGQECLEAVAQRLELRETHYFGLWFLSKSQQARWVELEKPLKKHLDKFANEPLLFFGVMFYVPNVSWLQQEATRYQYYLQVKKDVLEGRLRCTLDQVIRLAGLAVQADFGDYNQFDSQDFLREYVLFPMDLALEEAVLEELTQKVAQEHKAHSGILPAEAELMYINEVERLDGFGQEIFPVKDNHGNCVHLGIFFMGIFVRNRIGRQAVIYRWNDMGNITHNKSTILVELINKEETALFHTDDIENAKYISRLFATRHKFYKQNKICTEQSNSPPPIRRQPTWSRSSLPRQQPYILPPVHVQCGEHYSETHTSQDSIFHGNEEALYCNSHNSLDLNYLNGTVTNGSVCSVHSVNSLNCSQSFIQASPVSSNLSIPGSDIMRADYIPSHRHSAIIVPSYRPTPDYETVMRQMKRGILHTDSQSQSLRNLNIINTHAYNQPEDLVYSQPEMRERHPYTVPYGPQGVYSNKLVSPSDQRNPKNNVVPSKPGASAISHTVSTPELANMQLQGSHNYSTAHMLKNYLFRPPPPYPRPRPATSTPDLASHRHKYVSGSSPDLVTRKVQLSVKTFQEDSSPVVHQSLQEVSEPLTATKHHGTVNKRHSLEVMNSMVRGMEAMTLKSLHLPMARRNTLREQGPPEEGSGSHEVPQLPQYHHKKTFSDATMLIHSSESEEEEEEAPESVPQIPMLREKMEYSAQLQAALARIPNKPPPEYPGPRKSVSNGALRQDQASLPPAMARARVLRHGPAKAISMSRTDPPAVNGASLGPSISEPDLTSVKERVKKEPVKERPVSEMFSLEDSIIEREMMIRNLEKQKMAGLEAQKRPLMLAALNGLSVARVSGREENRVDATRVPMDERFRTLKKKLEEGMVFTEYEQIPKKKANGIFSTAALPENAERSRIREVVPYEENRVELIPTKENNTGYINASHIKVVVGGAEWHYIATQGPLPHTCHDFWQMVWEQGVNVIAMVTAEEEGGRTKSHRYWPKLGSKHSSATYGKFKVTTKFRTDSVCYATTGLKVKHLLSGQERTVWHLQYTDWPDHGCPEDVQGFLSYLEEIQSVRRHTNSMLEGTKNRHPPIVVHCSAGVGRTGVLILSELMIYCLEHNEKVEVPMMLRLLREQRMFMIQTIAQYKFVYQVLIQFLQNSRLI
B1 was tested, and the binding (myc-tagged PAR6B) was “binds” and the binding (myc-PRKCI [1]) was “binds”.

B2: PTPN14 (protein, UniProt Q15678 1-1187)
chain: MPFGLKLRRTRRYNVLSKNCFVTRIRLLDSNVIECTLSVESTGQECLEAVAQRLELRETHYFGLWFLSKSQQARWVELEKPLKKHLDKFANEPLLFFGVMFYVPNVSWLQQEATRYQYYLQVKKDVLEGRLRCTLDQVIRLAGLAVQADFGDYNQFDSQDFLREYVLFPMDLALEEAVLEELTQKVAQEHKAHSGILPAEAELMYINEVERLDGFGQEIFPVKDNHGNCVHLGIFFMGIFVRNRIGRQAVIYRWNDMGNITHNKSTILVELINKEETALFHTDDIENAKYISRLFATRHKFYKQNKICTEQSNSPPPIRRQPTWSRSSLPRQQPYILPPVHVQCGEHYSETHTSQDSIFHGNEEALYCNSHNSLDLNYLNGTVTNGSVCSVHSVNSLNCSQSFIQASPVSSNLSIPGSDIMRADYIPSHRHSAIIVPSYRPTPDYETVMRQMKRGILHTDSQSQSLRNLNIINTHAYNQPEDLVYSQPEMRERHPYTVPYGPQGVYSNKLVSPSDQRNPKNNVVPSKPGASAISHTVSTPELANMQLQGSHNYSTAHMLKNYLFRPPPPYPRPRPATSTPDLASHRHKYVSGSSPDLVTRKVQLSVKTFQEDSSPVVHQSLQEVSEPLTATKHHGTVNKRHSLEVMNSMVRGMEAMTLKSLHLPMARRNTLREQGPPEEGSGSHEVPQLPQYHHKKTFSDATMLIHSSESEEEEEEAPESVPQIPMLREKMEYSAQLQAALARIPNKPPPEYPGPRKSVSNGALRQDQASLPPAMARARVLRHGPAKAISMSRTDPPAVNGASLGPSISEPDLTSVKERVKKEPVKERPVSEMFSLEDSIIEREMMIRNLEKQKMAGLEAQKRPLMLAALNGLSVARVSGREENRVDATRVPMDERFRTLKKKLEEGMVFTEYEQIPKKKANGIFSTAALPENAERSRIREVVPYEENRVELIPTKENNTGYINASHIKVVVGGAEWHYIATQGPLPHTCHDFWQMVWEQGVNVIAMVTAEEEGGRTKSHRYWPKLGSKHSSATYGKFKVTTKFRTDSVCYATTGLKVKHLLSGQERTVWHLQYTDWPDHGCPEDVQGFLSYLEEIQSVRRHTNSMLEGTKNRHPPIVVHCSAGVGRTGVLILSELMIYCLEHNEKVEVPMMLRLLREQRMFMIQTIAQYKFVYQVLIQFLQNSRLI
In the case of B2, the binding (myc-PRKCI [2]) is reported as “binds”.

B3: PAR6B (protein, UniProt Q9BYG5 1-372)
chain: MNRSHRHGAGSGCLGTMEVKSKFGAEFRRFSLERSKPGKFEEFYGLLQHVHKIPNVDVLVGYADIHGDLLPINNDDNYHKAVSTANPLLRIFIQKKEEADYSAFGTDTLIKKKNVLTNVLRPDNHRKKPHIVISMPQDFRPVSSIIDVDILPETHRRVRLYKYGTEKPLGFYIRDGSSVRVTPHGLEKVPGIFISRLVPGGLAQSTGLLAVNDEVLEVNGIEVSGKSLDQVTDMMIANSRNLIITVRPANQRNNVVRNSRTSGSSGQSTDNSLLGYPQQIEPSFEPEDEDSEEDDIIIEDNGVPQQIPKAVPNTESLESLTQIELSFESGQNGFIPSNEVSLAAIASSSNTEFETHAPDQKLLEEDGTIITL
For B3, the binding (myc-PRKCI [2]) was “binds”.

B4: PARD3B (protein, UniProt Q8TEW8 1-1205)
chain: MKVTVCFGRTGIVVPCKEGQLRVGELTQQALQRYLKTREKGPGYWVKIHHLEYTDGGILDPDDVLADVVEDKDKLIAVFEEQEPLHKIESPSGNPADRQSPDAFETEVAAQLAAFKPIGGEIEVTPSALKLGTPLLVRRSSDPVPGPPADTQPSASHPGGQSLKLVVPDSTQNLEDREVLNGVQTELLTSPRTKDTLSDMTRTVEISGEGGPLGIHVVPFFSSLSGRILGLFIRGIEDNSRSKREGLFHENECIVKINNVDLVDKTFAQAQDVFRQAMKSPSVLLHVLPPQNREQYEKSVIGSLNIFGNNDGVLKTKVPPPVHGKSGLKTANLTGTDSPETDASASLQQNKSPRVPRLGGKPSSPSLSPLMGFGSNKNAKKIKIDLKKGPEGLGFTVVTRDSSIHGPGPIFVKNILPKGAAIKDGRLQSGDRILEVNGRDVTGRTQEELVAMLRSTKQGETASLVIARQEGHFLPRELKGEPDCCALSLETSEQLTFEIPLNDSGSAGLGVSLKGNKSRETGTDLGIFIKSIIHGGAAFKDGRLRMNDQLIAVNGESLLGKSNHEAMETLRRSMSMEGNIRGMIQLVILRRPERPMEDPAECGAFSKPCFENCQNAVTTSRRNDNSILHPLGTCSPQDKQKGLLLPNDGWAESEVPPSPTPHSALGLGLEDYSHSSGVDSAVYFPDQHINFRSVTPARQPESINLKASKSMDLVPDESKVHSLAGQKSESPSKDFGPTLGLKKSSSLESLQTAVAEVRKNDLPFHRPRPHMVRGRGCNESFRAAIDKSYDGPEEIEADGLSDKSSHSGQGALNCESAPQGNSELEDMENKARKVKKTKEKEKKKEKGKLKVKEKKRKEENEDPERKIKKKGFGAMLRFGKKKEDKGGKAEQKGTLKHGGLREEELEKMKEERERIGAKHQELREKQARGLLDYATGAIGSVYDMDDDEMDPNYARVNHFREPCTSANVFRSPSPPRAGPFGYPRDGHPLSPERDHLEGLYAKVNKPYHPLVPADSGRPTGGSTDRIQKLRKEYYQARREGFPLYEDDEGRARPSEYDLLWVPGRGPDGNAHNLRFEGMERQYASLPRGGPADPVDYLPAAPRGLYKERELPYYPGAHPMHPPKGSYPRPTELRVADLRYPQHYPPPPAPQHKGPFRQDVPPSPPQHQRMPAYQETGRPGPRGGSPDQYPYRTQDSRQKNPMTAAV
In the case of B4, the binding [3] is reported as “no binding”.
